Experiment [1] concerns the target T1, Pil1-Ste4-mCherry (S. pombe) (UniProt P36622).
T1 sequence: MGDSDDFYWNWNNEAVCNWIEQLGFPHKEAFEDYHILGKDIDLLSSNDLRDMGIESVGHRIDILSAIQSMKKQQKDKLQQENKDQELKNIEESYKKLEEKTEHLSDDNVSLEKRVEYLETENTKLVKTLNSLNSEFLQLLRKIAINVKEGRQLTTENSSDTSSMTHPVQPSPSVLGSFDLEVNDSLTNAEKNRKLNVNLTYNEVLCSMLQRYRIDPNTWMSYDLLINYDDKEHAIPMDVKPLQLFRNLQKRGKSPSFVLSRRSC
As to the kind of experiment: Pil1 co-recruitment assay (microscopy); mCherry-tagged bait fused to Pil1 to target it to eisosomes; recruitment of the GFP-tagged prey assessed by microscopy in vegetative cells in MSL+N; Pearson correlation coefficient.

The target of experiment [2] is Sms1-sfGFP (full-length, nmt41 promoter) (S. pombe). As to the kind of experiment: co-IP; anti-GFP beads; lysates (whole cell extracts) of vegetative cells expressing both proteins under the nmt41 promoter; lysis in LBi + 1% LMNG + 0.1% CHS, 3 h at 4 °C, washes with LBi + 1% NP-40.
Experiment [3] has as its target Pil1-Ste4^ΔRA-mCherry (S. pombe). As to the kind of experiment: Pil1 co-recruitment assay (microscopy); mCherry-tagged bait fused to Pil1 to target it to eisosomes; recruitment of the GFP-tagged prey assessed by microscopy in vegetative cells in MSL+N; Pearson correlation coefficient.
For experiment [4], the target named is Sms1-sfGFP (full-length, nmt41 promoter) (S. pombe). Put plainly: co-IP; anti-GFP beads; membrane fractions of vegetative cells (ste11Δ for Byr1^DD) expressing both proteins under the nmt41 promoter; membranes resuspended in LBi + 1% LMNG + 0.1% CHS.
Experiment [5] has as its target Sms1 arrestin domain-sfGFP (S. pombe). The description is as above.

Changes are numbered by the printed parent chain. Names and notes keep the numbering of the source. Results are given in words; binding and its absence hold for the method and conditions named. A result given as binding can be weak or reduced; the word gives no strength. For some assays here: Where a sequence is shown, tags or fusion partners need not be part of it. For some assays here: Binding seen in cells or lysates may run through a third protein.

Turning to Sms1^ΔSBD-sfGFP (S. pombe), in experiment [1], the binding entry was “no binding”.

Turning to “Sms1-sfGFP (full-length, nmt41 promoter) (S. pombe)”, the binding result in experiment [1] is “binds”.

B1: Ste4-3xFLAG-mCherry (protein, UniProt P36622 1-264)
chain: T1 sequence
Take B1: the binding result in experiment [2] is “binds”.

B2: MAP3K^Byr2, GFP-tagged (co-recruitment prey) (protein, UniProt P28829 1-659)
chain: MEYYTSKEVAEWLKSIGLEKYIEQFSQNNIEGRHLNHLTLPLLKDLGIENTAKGKQFLKQRDYLREFPRPCILRFIACNGQTRAVQSRGDYQKTLAIALKKFSLEDASKFIVCVSQSSRIKLITEEEFKQICFNSSSPERDRLIIVPKEKPCPSFEDLRRSWEIELAQPAALSSQSSLSPKLSSVLPTSTQKRSVRSNNAKPFESYQRPPSELINSRISDFFPDHQPKLLEKTISNSLRRNLSIRTSQGHNLGNFGQEILPRSSRRARPSELVCPLSSLRISVAEDVNRLPRIDRGFDPPLTVSSTQRISRPPSLQKSITMVGVEPLYQSNGNEKSSKYNVFSESAHGNHQVLSFSPGSSPSFIEQPSPISPTSTTSEDTNTLEEDTDDQSIKWIRGALIGSGSFGQVYLGMNASSGELMAVKQVILDSVSESKDRHAKLLDALAGEIALLQELSHEHIVQYLGSNLNSDHLNIFLEYVPGGSVAGLLTMYGSFEETLVKNFIKQTLKGLEYLHSRGIVHRDIKGANILVDNKGKIKISDFGISKKLELNSTSTKTGGARPSFQGSSFWMAPEVVKQTMHTEKTDIWSLGCLVIEMLTSKHPYPNCDQMQAIFRIGENILPEFPSNISSSAIDFLEKTFAIDCNLRPTASELLSHPFVS
For B2, the binding entry in experiment [3] is listed as “binds”.

B3: Gpa1-3xFLAG-mCherry (protein, UniProt P27584 1-407)
chain: MGCMSSKYADTSGGEVIQKKLSDTQTSNSSTTGSQNARVPVLENWLNIVLRGKPQNVESSGVRVKGNSTSGGNDIKVLLLGAGDSGKTTIMKQMRLLYSPGFSQVVRKQYRVMIFENIISSLCLLLEAMDNSNVSLLPENEKYRAVILRKHTSQPNEPFSPEIYEAVHALTLDTKLRTVQSCGTNLSLLDNFYYYQDHIDRIFDPQYIPSDQDILHCRIKTTGISEETFLLNRHHYRFFDVGGQRSERRKWIHCFENVTALLFLVSLAGYDQCLVEDNSGNQMQEALLLWDSICNSSWFSESAMILFLNKLDLFKRKVHISPIQKHFPDYQEVGSTPTFVQTQCPLADNAVRSGMYYFYLKFESLNRIASRSCYCHFTTATDTSLLQRVMVSVQDTIMSNNLQSLMF
As for B3, the binding entry in experiment [4] and in experiment [5] was “binds” each time.

B4: Gpa1^Q244L-3xFLAG-mCherry (protein, UniProt P27584 1-407)
chain: B3 chain with Q244L
B4: the binding entry in experiment [4] is “binds”.

B5: Gpa1^G242A-3xFLAG-mCherry (protein, UniProt P27584 1-407)
chain: B3 chain with G242A
For B5, the binding result in experiment [4] is reported as “binds”.

The record behind these values is paper PMC13144348.
